The campaign covered roughly 400,000 compounds. About 13,000 (3.2%) were called active. This list was built around the results that the source calls inconclusive (neither active nor inactive); the mix of calls is not that of the screen. Calls follow the shape of the dose curve; as a rule, active = well fitted cell-killing curve with a large enough effect; inconclusive = small, poorly fitted or top-dose-only effect, or effect the other way; inactive = flat fitted curve, though single readings scatter. Where the call is inconclusive, the potency comes from a doubtful curve fit.
Assay: qHTS assay for MDR1-selective chemotherapeutics: Primary screen using the drug-selected MDR subline cells KB-V1; also: nearly all actives have a fitted effect of over 60% in size
Details: KB-V1 MDR cells viability, CellTiter-Glo, 72 h; series mostly up to 46.1 µM
Summary of the method: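 Cytotoxicity toward P-gp-expressing KB-V1 cells was determined as loss of CellTiter-Glo luminescence after 72 h at 37 degrees C. Compounds were tested in quantitative HTS format across a concentration range, with curves fitted to normalized data.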
Potency is read from the fitted curve at half-maximal effect.

| Compound | Potency |
| --- | --- |
| COc1ccc(C2=C(C)C(=O)N(Cc3ccc(C(=O)Nc4cc(C)ccc4C)cc3)S2(=O)=O)cc1 | inactive |
| O=C(c1ccc2c(c1)OCO2)N(CC1CCCO1)C1(C(=O)NC2CCCCC2)CCCCC1 (stereo not drawn) | inconclusive: 6.51 µM [cytotoxic, partial curve, poor fit] |
| CN(Cc1ccccc1)C(=O)C1CCN(S(=O)(=O)c2cccc3nsnc23)CC1 | inconclusive: 8.2 µM [cytotoxic, partial curve, poor fit] |
| COc1cccc(C(=O)Nc2ccccc2-c2nnc(-c3cc(OC)ccc3Br)o2)c1 | inconclusive: 25.9 µM [rising, partial curve, poor fit] |
| COc1ccc(C(=O)Nc2ccccc2C(=O)Nc2ccncc2)cc1 | inconclusive: 29.1 µM [cytotoxic, single point] |
| COc1ccc(Cl)c(NC(=O)Cn2nnc(-c3ccccc3N)n2)c1 | inconclusive: 20.6 µM [cytotoxic, single point] |
| CC1CC(C)CN(C(=O)c2cccc(S(=O)(=O)N(C)c3ccccc3)c2)C1 (stereo not drawn) | inconclusive: 10.3 µM [cytotoxic, partial curve] |
| COc1ccc(F)cc1S(=O)(=O)Nc1ccncc1 | inactive |
| CC1C(c2ccc3c(c2)OCO3)c2cc3c(cc2OC1N1CCOCC1)OCO3 (stereo not drawn) | inconclusive: 16.4 µM [cytotoxic, single point] |
| CSCCC(C)N1CCC(Oc2ccc(C(=O)NCc3ccccn3)cc2)CC1 (stereo not drawn) | inactive |
| Cc1snc(SCC(=O)c2ccc(Cl)cc2)c1C#N | active: 20.6 µM |
| COc1ccc(N2CCCC2)c(NC(=O)c2ccc([N+](=O)[O-])o2)c1 | inconclusive: 23.1 µM [cytotoxic, single point] |
| COc1ccc(C2(CNC(=O)c3ccc(OCC(C)C)cc3)CCOCC2)cc1 | inconclusive: 29.1 µM [cytotoxic, single point] |
| COc1ccc(OC)c(N(CC(=O)NCCSc2ccccc2)S(C)(=O)=O)c1 | active: 23.1 µM |
| COc1ccc(NS(=O)(=O)c2ccc(Cl)c(NC(=O)c3cccnc3Cl)c2)cc1 | active: 20.6 µM |
| O=C(c1ccc(F)cc1)N1CCCC(c2nc(-c3cccs3)no2)C1 (stereo not drawn) | inconclusive: 29.1 µM [cytotoxic, single point] |
| CS(=O)(=O)Cc1ccc(C(=O)NC2CCCc3ccccc32)cc1 (stereo not drawn) | inconclusive: 23.1 µM [rising, single point] |
| CN(Cc1ccccc1)C(=O)C1CCN(S(=O)(=O)c2ccc3nc4c(c(C(=O)O)c3c2)CCCC4)CC1 | inactive |
| COc1cccc(CNC(=O)CN2C(=O)COc3ccc(S(=O)(=O)Nc4ccccc4)cc32)c1 | inactive |
| COc1ccc(-c2nc(Cn3c(SCc4ccccc4F)nc4ccncc43)c(C)o2)cc1OC | inactive |
| CN(C)c1ccc(/C=N/NC(=O)c2ccccc2Cl)cc1 | inconclusive: 23.1 µM [cytotoxic, single point] |
| CCOc1cc(CNC2CCCC2)cc(Cl)c1OCc1ccccc1 | inconclusive: 23.1 µM [cytotoxic, single point] |

Among those listed so far, these contain fluorine.

| Compound | Potency |
| --- | --- |
| COc1ccc(F)cc1S(=O)(=O)Nc1ccncc1 | inactive |
| O=C(c1ccc(F)cc1)N1CCCC(c2nc(-c3cccs3)no2)C1 (stereo not drawn) | inconclusive: 29.1 µM [cytotoxic, single point] |
| COc1ccc(-c2nc(Cn3c(SCc4ccccc4F)nc4ccncc43)c(C)o2)cc1OC | inactive |

The list continues:

| Compound | Potency |
| --- | --- |
| CCCCNC(=O)C(C#N)c1nc2ccccc2nc1N1CCN(Cc2ccc3c(c2)OCO3)CC1 (stereo not drawn) | inactive |
| COc1ccc(S(=O)(=O)N2CCN=C2SCc2cccc(F)c2)cc1 | inconclusive: 0.0116 µM [cytotoxic, full curve, poor fit] |
| Cc1noc(C)c1COc1ccc(CC(=O)NCCc2ccccc2)cc1 | inconclusive: 20.6 µM [cytotoxic, partial curve] |
| CCN(C(=O)c1ccc(S(=O)(=O)N2CCOCC2)cc1)C1CCS(=O)(=O)C1 (stereo not drawn) | inactive |
| CCN(CC)c1ccc(/C=N/N=C(N)N)c(O)c1 | inconclusive: 18.4 µM [cytotoxic, single point] |
| Cn1c(=O)c(C(=O)CN2CCN(Cc3ccc4c(c3)OCO4)CC2)c(N)n(Cc2ccccc2)c1=O | inconclusive: 18.4 µM [cytotoxic, partial curve, poor fit] |
| O=C(Nc1ccc(Cl)cc1)c1cc(S(=O)(=O)N2CCc3ccccc32)ccc1F | inconclusive: 14.6 µM [cytotoxic, single point] |
| Cc1cc2ccccc2n2c(SCC(=O)N3CCc4ccccc4C3)nnc12 | inconclusive: 18.4 µM [cytotoxic, single point] |
| COc1ccc(NS(=O)(=O)c2ccc(N3CCOCC3)c(NC(=O)c3ccc(OC)cc3)c2)cc1 | active: 18.4 µM |
| O=C1CCCN1C(=O)CCC(=O)N1CCCC1=O | inconclusive: 29.1 µM [rising, single point] |
| CC(C)(OC(=O)c1cccs1)c1cc2ccccc2c(=O)o1 | inactive |
| O=C(CSc1cn(CCNC(=O)c2ccc3ccccc3c2)c2ccccc12)NCc1ccco1 | inconclusive: 25.9 µM [cytotoxic, partial curve, poor fit] |
| O=C(O)c1ccc(/C=N/Nc2ccc(C(F)(F)F)cn2)cc1 | inactive |
| O=C(NNC(=S)Nc1ccc(Cl)cc1Cl)c1ccc(N2CCOCC2)c([N+](=O)[O-])c1 | inconclusive: 20.6 µM [cytotoxic, single point] |
| CC1(C(=O)Nc2cccc3cccnc23)CCN1C(=O)Cc1ccc(Cl)cc1Cl (stereo not drawn) | inconclusive: 16.4 µM [cytotoxic, single point] |
| CCOC(=O)C1CCN(S(=O)(=O)c2ccc(-c3nc4ccccc4s3)s2)CC1 | inconclusive: 25.9 µM [cytotoxic, partial curve, poor fit] |
| O=C1CCc2cc(NS(=O)(=O)c3ccc(Cl)cc3)cc3c2N1CC3 | inactive |
| Cc1ccccc1C(=O)N1CCc2cc(-c3nc(NC(=O)Cc4ccc5c(c4)OCO5)sc3C)ccc21 | inactive |
| COc1ccccc1OCC(=O)Nc1nc(C)c(C)s1 | inconclusive: 16.4 µM [cytotoxic, single point] |
| NC1=NC(=O)C(c2ccccc2)C(=O)N1 (stereo not drawn) | inconclusive: 29.1 µM [rising, single point] |
| COc1ccccc1C(=O)NCCC(=O)NCC1CCCO1 (stereo not drawn) | inconclusive: 14.6 µM [rising, single point] |
